Values from PubChem BioAssay AID686937 (Drosophila RNAi Screening Center, 2013)

Aim: 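Knock-downs that reduce output of a secreted reporter enzyme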 (primary screen)
System: Drosophila S2 cells expressing secreted horseradish peroxidase
Reagents: long dsRNA against Drosophila genes
Time to read-out: about 5.5 days (5 days dsRNA, then 12 h reporter induction)
Challenge: reporter expression induced after 5 days of dsRNA, read 12 h later; inducer not stated
Measured: 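Chemiluminescent measurement of peroxidase in the medium 12 h after reporter induction, following 5 days of dsRNA, given as a z-score per plate; higher means more secretion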
Direction: z-score: higher = more reporter secreted into medium
The screen tested about 23,000 reagents; shown is a random part of those with a known target gene and a result. 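Reduced-secretion tags in replicate 1 do not always agree with the z-scores; no criterion for assigning the tags was given.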 A plus sign joins genes that one reagent is predicted to hit. Further read-outs or replicates are left out here. Reagent sequences are not shown. The record does not give: the amount of reagent.

z-score, replicate 1, by gene and reagent
slf: DRSC00583 0.32
CG32726: DRSC17521 0.5
CG42694: DRSC03955 0.16
chn: DRSC06086 -0.21
Septin4: DRSC20205 0.23
Cyp6a2: DRSC05014 0.13
CG34288: DRSC13564 0.29
side-VI: DRSC12828 0.26; DRSC12830 0.23; DRSC14920 0.11; DRSC15624 0.09
CG11839: DRSC14398 0.4
CG32266: DRSC08062 0.12
Osi17: DRSC12284 0.4
Mon1: DRSC00336 -0.02
Sap30: DRSC19916 0.08
Sfxn1-3: DRSC12183 0.17
d4: DRSC04881 0.5; DRSC22674 -0.25
CG4686: DRSC15622 0.35
CG17760: DRSC06694 0.46
CG15742: DRSC19708 0.44
vih: DRSC09778 -0.33
Hnf4: DRSC01032 0.69; DRSC03344 0.69
Archease: DRSC16025 0.49
CG6696: DRSC20004 -0.25
aus: DRSC13471 0.06; DRSC13473 -0.21; DRSC15157 0.09
Lrch: DRSC02996 0.03
Frmd5: DRSC02802 0.2
CG1889 + CG43386: DRSC17979 0.36
Dad1: DRSC02263 -0.42
RpLP0-like: DRSC06424 0.33
modSP: DRSC16726 0.23; DRSC16857 -0.1; DRSC21489 -0.27
eIF3l: DRSC10530 0.57
CG17549: DRSC02625 0.45
ric8b + ric8a: DRSC18104 0.28
Trxr2: DRSC11900 -2.39
CG32214: DRSC09613 -0.45
Atg10 + CG18853 + CG12822: DRSC20757 1.22
drk: DRSC07606 -0.67
CG4476: DRSC10424 0.47
toy: DRSC17222 0.1
Spf45: DRSC03826 -0.06
Ccdc114: DRSC15025 0.42
Cpr49Ah: DRSC07204 -0.01
vers: DRSC10715 -0.55
CG5516: DRSC15826 0.53; DRSC21753 -2.09
Ras85D: DRSC16814 -2.11
CG43691: DRSC06650 0.25; DRSC06651 0.21
glec: DRSC16958 0.25
CG11882: DRSC14425 0.07
Porin2: DRSC02584 0.48
Tpc1: DRSC15614 -0.09; DRSC16074 0.21
lush: DRSC11364 0.37
AlaRS: DRSC01851 0.43
CG15650: DRSC04241 -0.43
LRR: DRSC06444 0.11
spi: DRSC03618 0.13
CG11854: DRSC14409 0.39
CG10445: DRSC14247 0.03
CG13293: DRSC09967 0.12
Tom: DRSC11306 0.59
IFT52: DRSC03271 0.1
Myo28B1: DRSC03375 0.48
Prosalpha1R + Prosalpha1: DRSC07515 -4.37
CG7632: DRSC11842 0.55
CG16854: DRSC02536 0.22
CG33128: DRSC00294 0.11
Rnb: DRSC16325 0.17
CG14628: DRSC18626 0.18
CG30392: DRSC22341 -0.35
CG31219: DRSC15140 0.3
Xpd: DRSC04666 -2.43
ps: DRSC15149 0.29; DRSC15151 -0.26; DRSC15152 -2.9; DRSC16388 -6.45
